Reference: patent US20210041441A1, “DISCOVERY OF NOVEL MOLECULES AND REPURPOSED DRUGS FOR RAS FAMILY GTPases” (UNM Rainforest Innovations, priority 2018, published 2021)
At least one structure is not confirmed: it was looked up by name or label, or the drawing left a doubt.

System: Ras family GTPases (KRas WT, G12v, G13d, G12a, G12c, G12d, Q61H, Q61L, Q61R; HRas WT, HRas G12v; CDC42 WT, CDC42 L61; Rac1 WT, Rac1 L61)
Assay: Multiplex flow cytometry Bodipy FL-GTP binding, compound screen and dose response
Conditions: 10 nM Bodipy FL-GTP, compound 100-0.015 μM, normalized to DMSO

Compound	class of modulation of Bodipy-GTP binding to Ras family GTPases (pan activator, pan inhibitor, selective inhibitor, mixed activity modulator)
CCn1c(=O)c2c(nc(/C=C/c3ccc(OC)c(OC)c3)n2C)n(CC)c1=O [Istradefylline]	pan inhibitors
CC(=O)c1c(O)c(C)c(O)c2c1OC1=CC(=O)C(C(C)=O)C(=O)C12C (centres unmarked) [Usnic acid]	pan activators
